Assay results: patent publication US20260078175A1 (Boehringer Ingelheim, published 2026)
No constants are given. Whether binding was seen depends on the method and setting. Binding can be weak; no strength is given.

Target: Cynomolgus Sema3A (cynomolgus)
Experiment: SPR, comparison with Samsung scFv 1-3

B1: Antibody of the invention (clone I) (antibody, human IgG1, kappa, L234A L235A, V domains shown)
VH: EVQLVESGGGLVQPGGSLRLSCAASGFTFSSYYMSWVRQAPGKGLEWVSTIIKSGGYAYYPDSVKDRFTISRDNSKNTLYLQMSSLRAEDTAVYYCVRGGQGAMDYWGQGTTVTVSS
VL: EIVLTQSPATLSLSPGERATLSCRASQSIGDYLHWYQQKPGQAPRLLIKYASQSISGIPARFSGSGSGTDFTLTITSLEPEDFAVYYCQQGYSFPYTFGGGTKLEIKR
notes: also called clone 1; anti-Sema3A antibody of the invention
Question: For B1, which binding is on record?
Answer: binds
